# Assay results as given in the supplement of paper PMC3334620.
# The full ranking holds about 33,000 sequences; the median of “E-score (-0.5 to 0.5)” is about -0.016, and the highest 2% start at about 0.3. Some of the results follow.
# Biological target: T1, Yer184c (UniProt P39961)
# T1 sequence: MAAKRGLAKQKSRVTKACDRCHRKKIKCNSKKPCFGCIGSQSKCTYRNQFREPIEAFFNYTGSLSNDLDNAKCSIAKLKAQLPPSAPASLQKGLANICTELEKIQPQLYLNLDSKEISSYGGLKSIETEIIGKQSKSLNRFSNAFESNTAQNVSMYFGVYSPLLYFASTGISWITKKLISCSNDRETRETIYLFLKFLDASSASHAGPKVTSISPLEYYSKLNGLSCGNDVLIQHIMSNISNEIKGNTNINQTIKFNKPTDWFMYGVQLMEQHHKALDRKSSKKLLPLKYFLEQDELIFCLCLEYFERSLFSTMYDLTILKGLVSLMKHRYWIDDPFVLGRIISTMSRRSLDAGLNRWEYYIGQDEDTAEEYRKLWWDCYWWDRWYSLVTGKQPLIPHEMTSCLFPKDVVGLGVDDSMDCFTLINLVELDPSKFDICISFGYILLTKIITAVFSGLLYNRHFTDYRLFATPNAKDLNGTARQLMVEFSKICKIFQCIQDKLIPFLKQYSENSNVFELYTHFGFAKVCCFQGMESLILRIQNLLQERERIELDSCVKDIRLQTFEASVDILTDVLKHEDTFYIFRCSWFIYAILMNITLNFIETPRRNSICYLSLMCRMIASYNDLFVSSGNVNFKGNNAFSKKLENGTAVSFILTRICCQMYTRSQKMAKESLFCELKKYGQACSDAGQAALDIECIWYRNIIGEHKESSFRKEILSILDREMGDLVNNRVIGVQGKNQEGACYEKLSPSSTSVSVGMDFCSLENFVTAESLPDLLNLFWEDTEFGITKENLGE
# Assay: PBM E-score (8-mer binding enrichment) (E-score (-0.5 to 0.5)); higher = stronger / more preferred TF binding
# Conditions: protein concentration: 100 nM; construct: GST-full length
# How it was run: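 E-scores (a modified Wilcoxon-Mann-Whitney statistic) were assigned by the Universal PBM Analysis Suite to every ungapped eight-base word pooled with its reverse complement. The input came from universal all-10-mer Agilent arrays made double-stranded by primer extension and probed with GST-tagged yeast transcription factors at about 100-200 nM. Fluorescent anti-GST detected bound protein, and masliner normalised the scans.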
row,Sequence,PBM E-score
1,AGAAGGTC,-0.112
2,GAGGTGGA,-0.166
3,GCCGAGGA,0.335
4,AGAAGTAT,0.103
5,CGCGTAGA,0.013
6,ACCGAAGG,0.115
7,TCGTGACA,0.112
8,CCCCCGGG,0.0845
9,CTGCGGAC,0.0668
10,CTAGTTAA,0.0302
11,GGGTCCAC,-0.28
12,AACTCGGC,0.273
13,ACTGCAGA,-0.00118
14,ACCACAGC,-0.0729
15,CTGGAAAA,0.188
16,TACTAAGA,0.0512
17,CGAGTCCG,0.247
18,AAGACTGG,-0.198
19,CGACAGAG,-0.212
20,CCTCGTCG,0.0219
21,CAGGGGTC,-0.227
22,TGGAGCCA,-0.228
23,AGATAGGC,-0.207
24,CAAGCGGG,-0.208
25,AACTACTT,-0.0125

row,Sequence,PBM E-score
1,GGGGTCAC,-0.23
2,AGAAATTA,0.354
3,AGAGGAGA,-0.131
4,CAACGAAC,0.0476
5,CTGCCGGC,0.369
6,GTGGAACA,0.0598
7,CTACCTAC,0.0349
8,CACAGGTA,-0.0737
9,ACCCTTCA,-0.142
10,CCTTATAG,-0.0177
11,TAGATTGA,0.144
12,ACTAAGCC,0.0886
13,CCATATCG,0.0792
14,GAAACAGA,0.136
15,TACCCACA,-0.0892
16,TCTCCCCA,-0.189
17,ATGCCGGA,0.36
18,TAAGGGTA,-0.27
19,GGCCGGTA,0.248
20,CAATAACC,0.13
21,CCGGCTCA,0.362
22,ATGCCGAG,0.346
23,ATTCCAAT,0.0583
24,AAGGCGCG,-0.244
25,ATGCAATC,-0.0539

# Looked up one by one from the list above, 7 records:
row,Sequence,PBM E-score
20,CAATAACC,0.13
18,TAAGGGTA,-0.27
19,GGCCGGTA,0.248
2,AGAAATTA,0.354
21,CCGGCTCA,0.362
10,CCTTATAG,-0.0177
5,CTGCCGGC,0.369

# (further entries)

row,Sequence,PBM E-score
1,ATGGACTA,0.031
2,CGTATGAA,0.206
3,CACACGAA,0.0689
4,CTTCTTTA,0.0279
5,AAACCCGC,0.135
6,TGGTTACA,-0.0662
7,ATACCTTC,-0.0606
8,ACAGACTA,-0.027
9,ACCAGAAG,-0.13
10,CAGGCCGC,0.00977
11,GTAAATTA,-0.0205
12,ACCTTCAG,-0.205
13,ATTTCCGG,0.445
14,ATCTTCAG,0.0939
15,GTGTGGCA,-0.193
16,AAATTGGT,0.105
17,CACCTTGG,-0.194
18,ACGTGGGC,-0.254
19,GCAGGCTA,-0.172
20,CTGCCGGA,0.349
21,ATGGCTTC,0.0134
22,ACTGAGAC,0.0598
23,ATTACGCC,0.0362
24,CGGGTGGA,-0.0511
25,TCGGTTAA,0.333

row,Sequence,PBM E-score
1,AAATATCC,0.27
2,ACGCCGAC,0.198
3,CTGCGAGC,-0.0863
4,ATCTGTCA,0.0815
5,AACCGAAT,0.199
6,CTCGATTC,0.0805
7,GCAAGTAA,-0.0502
8,TCTGAACA,-0.0173
9,CCAATAGG,-0.229
10,ATGGTCTA,-0.239
11,CTATTAGA,-0.0899
12,GAAACGTC,-0.0761
13,ACTAGTCA,-0.164
14,CTCGCATA,-0.152
15,AAGGGTTG,-0.0806
16,AAATATCA,0.124
17,AAGTTACC,0.281
18,CCGGCCCA,0.181
19,CTACGAAC,-0.0618
20,CCCGATAC,0.0783
21,GTGCCAAA,-0.00899
22,ATACAGAT,0.111
23,CCGCATTA,0.0562
24,ATACCCTC,0.0252
25,AGTTATGA,0.108

row,Sequence,PBM E-score
1,ATCGAGTA,-0.0791
2,CTTTGTGC,0.0691
3,TCCACTCA,-0.0411
4,GTGTGCGA,-0.126
5,CGGTCGAC,0.223
6,GTTGAGGA,0.0739
7,AAAATAAA,0.226
8,ATTCAAAA,0.258
9,TGATGCCA,-0.0559
10,CGGTTGTA,-0.0768
11,CGGCGAAC,0.263
12,AGAGTGAT,-0.149
13,CTTTAACA,0.197
14,GTTAATTA,0.257
15,ATGTTCTC,0.0489
16,CTACTTTC,0.0781
17,AGCCGGGA,0.311
18,ATGTCAGC,-0.045
19,ACGGTTCT,-0.014
20,AACGGACG,0.159
21,CGCGGCGA,0.253
22,AAGCTCCG,0.339
23,AGCGAAGA,-0.105
24,CCCGTTAC,-0.0585
25,TCGTCAAA,0.138

row,Sequence,PBM E-score
1,AAACACAG,0.132
2,CTACGGTA,0.0439
3,ACGAACTA,0.157
4,CTCTTCAA,-0.129
5,AAACTGAC,-0.0343
6,GATTTTCC,0.132
7,GTACTGTA,-0.14
8,ATGGCGAC,-0.117
9,TCGGTCCA,0.0731
10,ACTAATAG,0.108
11,CGTACGAA,0.149
12,ATCCCCTC,-0.241
13,CTTGTTAA,0.0825
14,AACTGCCT,-0.00368
15,AAACTGTC,-0.133
16,CGGGGTGC,0.0137
17,CCTGCTTA,-0.0649
18,GAAGAAGA,0.165
19,CTGCTGTA,0.0812
20,GAGATGTA,0.0908
21,AAACTGCT,-0.116
22,GTGACTCA,-0.182
23,GCAGTCAC,-0.186
24,ACCACCTG,-0.116
25,CAAACCGC,0.0411

row,Sequence,PBM E-score
1,ACGCGCAA,0.156
2,AATTGTTG,-0.0931
3,CACTCATA,0.0205
4,CGATGCCA,-0.15
5,ACAGATTG,-0.133
6,GATAAAGA,-0.0721
7,AAGGGCTC,-0.307
8,AGCATTTG,-0.07
9,AAAGAAGG,-0.0521
10,AGTACAGG,0.015
11,GCGAAAGC,-0.056
12,ATAATGTC,0.0688
13,CCGTAACA,0.148
14,CGGCTGGC,0.151
15,ACTTCCAA,-0.0697
16,ATGCACAT,-0.0925
17,ACACGACG,-0.0478
18,ATTTGTCA,0.1
19,ATGTAAGA,0.152
20,ACTAGAAT,-0.127
21,AACTATGT,-0.00664
22,AATCAAGT,-0.0331
